Results as given in US20130288897A1, “SYNERGISTIC PESTICIDAL COMPOSITIONS” (Dow AgroSciences LLC, priority 2012, published 2013).
At least one compound was matched to its structure with a doubt left.

Legend:
Format in all cases: in vivo
[1] = system: cotton aphid (CA) Aphis gossypii; assay: Cotton aphid track-sprayer test on cotton: Compound A or imidacloprid with Glyphomax Plus (glyphosate) and AMS (Example XV)
Experimental: Glyphosate resistant cotton plants (Gossypium hirsutum, cv ‘DP493’) were trimmed to 1 true leaf and infested with mixed stages of cotton aphid (CA) Aphis gossypii 24 h prior to application. Mixed developmental stage CA were infested onto the upper surface of each treated leaf by transferring infested foliage from an insectary colony. Each plant was infested with approximately equal numbers of CA based on visual estimation of aphid density on the infested material. Infested plants were held in the growth chamber (L:D 16:8 and 25° C.). Glyphosate (Glyphomax Plus, Dow AgroSciences, LLC, Indianapolis, Ind.) was mixed with water at a rate equivalent to 32 oz/Ac/20 gallons. […] High rate Compound A concentrations were created by diluting Compound A technical material with acetone to achieve a 10 ppm solution. […] Plants were evaluated after 3 days from the time of infestation by counting all live cotton aphids on each plant.
For the purposes of this experiment, the compositions having lower rates of the insecticide were not analyzed. Percent control for all treatments was calculated using the rep average for the untreated plants. […] For all tests, measured efficacy (% Control) data were compared to calculated Colby values (Colby, S. R. 1967. Calculating Synergistic and Antagonistic Responses of Herbicide Combinations. Weeds 15:20-22) using a 2 sided T-test (Minitab). […]

[2] = system: cotton aphid (CA) Aphis gossypii; assay: Cotton aphid track-sprayer test on cotton: Compound A or imidacloprid with Durango (glyphosate) or Durango Blank and AMS (Example XVI); settings: 0.2 g insecticide/Ha
Experimental: Glyphosate resistant cotton plants (Gossypium hirsutum, cv ‘DP493’) were trimmed to 1 true leaf and infested with mixed stages of cotton aphid (CA) Aphis gossypii 24 h prior to application. Mixed developmental stage CA were infested onto the upper surface of each treated leaf by transferring infested foliage from an insectary colony. Each plant was infested with approximately equal numbers of CA based on visual estimation of aphid density on the infested material. Infested plants were held in the growth chamber (L:D 16:8 and 25° C.). Glyphosate (Durango®, Dow AgroSciences, LLC, Indianapolis, Ind.) was mixed with water at a rate equivalent to 15 ml/L (1.2 qt/Ac). […] A glyphosate free formulation of Durango® was prepared using these same mixing instructions. […] High rate Compound A concentrations were created by diluting Compound A technical material with acetone to achieve a 10 ppm solution. […] […] […] Nozzle height above the canopy was held constant at ca. 30 cm. Plants were evaluated after 3 days from the time of infestation by counting all live cotton aphids on each plant.
[…] Percent control for all treatments was calculated using the rep average for the untreated plants.

[3] = system: cotton aphid (CA) Aphis gossypii; assay: Cotton aphid track-sprayer test on cotton: Compound A with glufosinate (Liberty) and AMS, rates 0.4, 0.1 and 0.025 g/Ha (Example XVIII)
Experimental: (§1) Glyphosate resistant cotton plants (Gossypium hirsutum, cv ‘DP493’) were trimmed to 1 true leaf and infested with mixed stages of cotton aphid (CA) Aphis gossypii 24 hours prior to application. Mixed developmental stage CA were infested onto the upper surface of each treated leaf by transferring infested foliage from an insectary colony. Each plant was infested with approximately equal numbers of CA based on visual estimation of aphid density on the infested material. Infested plants were held in the growth chamber (L:D 16:8 and 25° C.). Glufosinate (Liberty®, Bayer CropScience, Monheim am Rhein, Germany) was mixed with water at a rate equivalent to 5 ml/L (0.4 qt/Ac). […] High rate Compound A concentrations were created by diluting Compound A technical material with acetone to achieve a 20 ppm solution. […] […] […] Nozzle height above the canopy was held constant at ca. 30 cm. Plants were evaluated after 3 days from the time of infestation by counting all live cotton aphids on each plant.

[4] = system: cotton aphid (CA) Aphis gossypii; assay: Cotton aphid track-sprayer test on cotton: Compound A or imidacloprid with glufosinate (Liberty) and AMS (Example XVII)
Experimental: as §1, with “h” for “hours”, “10” for “20”
TABLE 6 contains the calculated Colby values for combinations of treatments as well as the outcome of statistical evaluations between predicted (Colby) and actual measured values. These T-test statistics were only calculated for the 0.2 and 0.05 g/Ha rates. […] These same trends were apparent when Compound A was applied with both glufosinate and AMS.

CC(c1ccc(C(F)(F)F)nc1)S(C)(=O)=NC#N (stereo not shown) [Compound A, [1-(6-Trifluoromethylpyridin-3-yl)ethyl](methyl)-oxido-λ^4-sulfanylidenecyanamide]
synergy assessment (measured control vs Colby values) ([1]; insecticide with AMS and herbicide (Glyphomax Plus)): synergyistic improvement in activity
synergy assessment (measured control vs Colby values) ([1]; insecticide with the herbicide (Glyphomax Plus)): indicative of synergy
synergy assessment (measured vs predicted additive Colby values) ([2]; co-applied with AMS and Durango): significant improvement in efficacy
synergy assessment (measured vs predicted additive Colby values) ([2]; only Durango mixed): no effects
synergy assessment (measured vs predicted additive Colby values) ([2]; with Durango blank and AMS): No difference was observed
synergy assessment (measured vs predicted additive Colby values) ([2]; with Durango blank formulation): no significant difference between predicted and measured activity
synergy assessment (measured vs predicted Colby values) ([3]; applied with glufosinate and AMS): activity was significantly increased
synergy assessment (measured vs predicted Colby values) ([3]; coapplication with glufosinate): did not have a synergistic effect
synergy assessment (measured vs predicted Colby values) ([4]; insecticide applied together with glufosinate): synergistic increase in efficacy
synergy assessment (measured vs predicted Colby values) ([4]; insecticide with glufosinate and AMS): strongly indicated
